# At least one read-out could not be matched to a standard name with certainty.
# Tested on: mice (stay in light compartment)
# Assay: Light and dark box test (anti-anxiety effect)
# Format: in vivo, mouse
# Settings: male Std-ddY mice, oral, 30 minutes before test, Dunnett test 5%
# Source text: Experiment 2: Light and Dark Box Test (Anti-anxiety Effect)
# Anti-anxiety effect of test compounds was examined in a box with light and dark compartments according to the method of Crawley, J. and Goodwin, F. K. [cf., Pharmacol. Biochem. Behav., 13, 167-170 (1980)] with slight modification.
# Light and dark box test is a useful, simple and handy method for behaviorally and pharmacologically examining anti-anxiety effect of the drugs, by utilizing the habit of rodents such as mice and rats, etc. which prefer to stay in a dark place, and regarding as positive drug effect the increase of the relative stay of the animals in the light compartment which is an uncomfortable place for the animals. A number of drugs such as cholecystokinin B type receptor antagonists and benzodiazepine drugs, show positive effect in this test.
# Light and dark box test was carried out using the test box device (35×17×15 cm) which comprises: a light compartment (20×17×15 cm) consisting of transparent acrylic plates and highly illuminated by an incandescent lamp (1,700 lux); a dark compartment (15×17×15 cm) being made of black acrylic plates connected to the light compartment; and at the boundary of compartments, an opening (4.4×5.0 cm) in which mice can go through freely between two compartments.
# Male mice of Std-ddY strain weighing 25-30 g were used in a group of 10. Each trial was started by placing a mouse in the center of the light compartment 30 minutes after oral administration of a test compound, and the time spent by the mouse in the light compartment during a 5 minute observation period was measured, and the rate of the stay of mice in the light compartment to the whole time spent in the experiment was calculated (rate of light compartment stay, %).
# The anti-anxiety effect of the test compound was represented by the minimum effective dose (MED) at which the increasing rate of the relative stay in the light compartment was regarded as statistically significant (Dunnett test, significance level: 5%). 4.
row,SMILES,Anti-anxiety effect MED (minimum effective dose) [µg/kg]
1,"CN(C(=O)Cn1c(=O)n(C)c2nc(-c3ccc(F)cc3)ncc21)c1ccccc1 [Example 5, 8,9-dihydro-2-(4-fluorophenyl)-9-methyl-N-methyl-8-oxo-N-phenyl-7H-purin-7-acetamide]",1
2,"CCN(C(=O)Cn1c(=O)n(C)c2nc(-c3ccccc3)ncc21)c1ccccc1 [Example 1, N-ethyl-8,9-dihydro-9-methyl-8-oxo-2-phenyl-N-phenyl-7H-purin-7-acetamide]",1
3,"CN(C(=O)Cn1c(=O)n(C)c2nc(-c3ccccc3)ncc21)c1ccccc1 [Example 2, 8,9-dihydro-9-methyl-N-methyl-8-oxo-2-phenyl-N-phenyl-7H-purin-7-acetamide]",1
4,"CCCN(CCC)C(=O)Cn1c(=O)n(CC)c2cnc(-c3ccccc3)nc21 [Example 107, 7-ethyl-7,8-dihydro-8-oxo-2-phenyl-N,N-dipropyl-9H-purin-9-acetamide]",1
5,"CN(Cc1ccccc1)C(=O)Cn1c(=O)n(C)c2cnc(-c3ccc(Cl)cc3)nc21 [Example 137, N-benzyl-7,8-dihydro-N-methyl-7-methyl-8-oxo-2-(4-chlorophenyl)-9H-purin-9-acetamide]",1
6,"CCCN(CCC)C(=O)Cn1c(=O)n(C)c2cnc(-c3ccccc3)nc21 [Example 106, 7,8-dihydro-7-methyl-8-oxo-2-phenyl-N,N-dipropyl-9H-purin-9-acetamide]",1
7,"CCN(Cc1ccccc1)C(=O)Cn1c(=O)n(C)c2cnc(-c3ccc(Cl)cc3)nc21 [Example 147, N-benzyl-N-ethyl-7,8-dihydro-7-methyl-8-oxo-2-(4-chlorophenyl)-9H-purin-9-acetamide]",1
